In the DeepSol protein solubility set:

Experiment: soluble on expression in E. coli; label from the status in PepcDB or PDB records
For “AMNAFGDMTSEEFRQVMNGFQNRKPRKGKVFQEPLFYEAPRSVDWREKGYVTPVKNQGQCGSCWAFSATGALEGQMFRKTGRLISLSEQNLVDCSGPQGNEGCNGGLMDYAFQYVQDNGGLDSEESYPYEATEESCKYNPKYSVANDAGFVDIPKQEKALMKAVATVGPISVAIDAGHESFLFYKEGIYFEPDCSSEDMDHGVLVVGYGFESTESDNNKYWLVKNSWGEEWGMGGYVKMAKDRRNHCGIASAASYPTV”, the “soluble on expression in E. coli” value was “soluble”. In the case of “EFVVEKVLDRRVVNGKVEYFLKWKGFTDADNTWEPEENLDCPELIEAFLNSQKAGKEKDGTKRKSLSDSESDDSKSKKKRDAADKPRGFARGLDPERIIGATDSSGELMFLMKWKDSDEADLVLAKEANMKCPQIVIAFYEERLTWHSCPEDEAQ”, the “soluble on expression in E. coli” value is reported as “not soluble”. In the case of “GPGSMSGLGSDDVLYYLYDPNLVPPARDKYIQVISELLAGYYDSSYVDKINIMDILRGGAMEAVELCEDAKSILSKEPTVLGLCVGDVDDFVFVGDIHGQFNDLLHSVLSVQLSRSAPVSRKGTKVATQPTQRMNDEEARGERSSPLPIVATPTLSSSLAPLPSSTAMPRHRDDSRGFGRDAGKIIRFLFLGDYVDRGPRGLEVIVLLLALKIEYPQHVFLLRGNHEEAQTNRLYGF”, the “soluble on expression in E. coli” value is reported as “not soluble”. For “MAANGVATAGRQVSEKEADIQMMLSADVHLGTKNCNYQMERYVFKRRDDGIYIINLGKTWDKLQMAARVIVAIENPKDIIVQSARPYGQRAVLKFAQYTGVNAIAGRHTPGTFTNQMQTSFSEPRLLILTDPRTDHQPIKEGALGNIPTIAFCDTDSPMGFVDIGIPANNKGKHSIGCLFWLLARMVLQMRGTILAAQKWDVMVDLFFYREPEEAKQEGDEEAEVQADYGMVGGDQWTTAQISDAAWSGEVEQPISAAPAVGVTVAAGWEAASVPAAGWE”, the “soluble on expression in E. coli” value was “not soluble”. In the case of “MADSTTAQHVTDEVDVALIGAGIMSATLGAMLRTLEPGWTQVMFERLDAPAQESSSPWNNAGTGHSALCELNYTPEVKGRVQIDKALGVNEKFQISRQFWSYQVNEGVLPSPREWINPVPHVSFGRGEDQVAYLKKRYEALAAHPLFPNMQYTDDRAKFAEMLPLMADGRSEFEKVAISWTDAGTDINYGSQTRQFLKAAEKNGTEIRYGHEVKDIKRDGAKWRVTVKNVHTGDTQVIRANFVFVGAGGMALPLLQKTGIVEIRGWGGFPVSGQWLRCTNPDIIEQHAAKVYGKASIGAPPMSVPHLDTRVIDGEKGLLFGPYAGWTPKFLKKGSYLDLFKSIRPTNLMSYLGVGAQEFGLTKYLITEVMKDQAARMESLREYMPNAKDEDWELVTAGQRVQAIQPVVGPRFSTLAFGTSLINSADGSVAGILGASPGASIAPAAMLELLERCFGQKMVEWGPTIKDMIPSYGIRLATDQKLFNEIWDHTQATLQLDKK”, the “soluble on expression in E. coli” value is reported as “not soluble”. In the case of “MAEGVFQGAIGIDLGTTYSCVATYESSVEIIANEQGNRVTPSFVAFTPEERLIGDAAKNQAALNPRNTVFDAKRLIGRRFDDESVQKDMKTWPFKVIDVDGNPVIEVQYLEETKTFSPQEISAMVLTKMKEIAEAKIGKKVEKAVITVPAYFNDAQRQATKDAGAISGLNVLRIINEPTAAAIAYGLGAGKSEKERHVLIFDLGGGTFDVSLLHIAGGVYTVKSTSGNTHLGGQDFDTNLLEHFKAEFKKKTGLDISDDARALRRLRTAAERAKRTLSSVTQTTVEVDSLFDGEDFESSLTRARFEDLNAALFKSTLEPVEQVLKDAKISKSQIDEVVLVGGSTRIPKVQKLLSDFFDGKQLEKSINPDEAVAYGAAVQGAILTGQSTSDETKDLLLLDVAPLSLGVGMQGDMFGIVVPRNTTVPTIKRRTFTTCADNQTTVQFPVYQGERVNCKENTLLGEFDLKNIPMMPAGEPVLEAIFEVDANGILKVTAVEKSTGKSSNITISNAVGRLSSEEIEKMVNQAEEFKAADEAFAKKHEARQRLESYVASIEQTVTDPVLSSKLKRGSKSKIEAALSDALAALQIEDPSADELRKAEVGLKRVVTKAMSSR”, the “soluble on expression in E. coli” value is reported as “not soluble”. With “MAELRSNMITQGIDRAPHRSLLRAAGVKEEDFGKPFIAVCNSYIDIVPGHVHLQEFGKIVKEAIREAGGVPFEFNTIGVDDGIAMGHIGMRYSLPSREIIADSVETVVSAHWFDGMVCIPNCDKITPGMLMAAMRINIPTIFVSGGPMAAGRTSYGRKISLSSVFEGVGAYQAGKINENELQELEQFGCPTCGSCSGMFTANSMNCLSEALGLALPGNGTILATSPERKEFVRKSAAQLMETIRKDIKPRDIVTVKAIDNAFALDMALGGSTNTVLHTLALANEAGVEYSLERINEVAERVPHLAKLAPASDVFIEDLHEAGGVSAALNELSKKEGALHLDALTVTGKTLGETIAGHEVKDYDVIHPLDQPFTEKGGLAVLFGNLAPDGAIIKTGGVQNGITRHEGPAVVFDSQDEALDGIINRKVKEGDVVIIRYEGPKGGPGMPEMLAPTSQIVGMGLGPKVALITDGRFSGASRGLSIGHVSPEAAEGGPLAFVENGDHIIVDIEKRILDVQVPEEEWEKRKANWKGFEPKVKTGYLARYSKLVTSANTGGIMKILEHHHHHH” the “soluble on expression in E. coli” value was “soluble”. In the case of “MAHHHHHHMNAAAIEVINKLKKEDESNNKCFDCGVPNPDWVSVNHGVFLCINCSGVHRSLGVHISIVRSIKMDIFTDEQLKYLDKGGNKKFQTYLENYGINDFIPERKYRTKAAEHYRKIMRSIVHNSDPPSPLSLDEGKDLINFGQNENMNANEINKNSRNNFYADDQPNFIPSLNTSEILDNVSATFSNIINKAQTMTTNTINNLNKNDLIESTKDTLMNSSSWITEKTKKIAENVSDNPWWEKGQSKIKDVTQNASGWISTISSTVSRTNSNFFFANSEFGATGGPNGTGSVSTNASAQGGQGAGAPDHLTNNASSVNNSNADGYNKPNGGENNPGFSRTDTNKSLNKN”, the “soluble on expression in E. coli” value is reported as “not soluble”. With “MAHHHHHHMSNKKGQSPKEESIAKMLICKVHIGTKNLENKMKRYVYTRAKDGVHIINLAKTYEKLQLAARIIVAISNPADVVVVSARPFGSRAVLKFAQYTGAQAIAGRWTPGMLTNQIIQKFTEPRLLIVTDPRTDAQSVKESAYANIPVIALCDSDSPLEHVDIAIPCNNKGKESIALMYWLLAQEVLYLKGVIPRSEPWNVMVDMFLWRDPEQFELKNLANEENTPTAPHLIENQYAAEAPYDEWTKKEEWNDNTNEDWKNPIAAEEW” the “soluble on expression in E. coli” value was “not soluble”. For “MEENIVSENNMKHRSSVYDSMVKSPNRAMLRATGMTDDSFEKPIVGVISTWAENTPCNIHLHGFGQIAKEGVKDAGAWPVQFGTITVADGIAMGTPGMRFSLTSRDIIADSIEAAMGGHNVDAFVAIGGCDKNMPGSMIAIANMDIPAIFAYGGTIAPGNLNGKDIDLVSVFEGIGKWNHGDMTAEEVKNLECNACPGPGGCGGMYTANTMATAIEVMGMSLPGSSSHPAESAEKKADIEEAGRAVVKMLEMGLKPSDILTREAFEDAITVTMALGGSTNATLHLLAIAHAANVDLTLEDFNDFQERVPHLADLKPSGQYVFQDLYNVGGVPAVMKYLLKNGFLHGDRITCTGKTVAENLEAFDDLTPGQKVIMPLENPKRADGPLIILKGNLAPEGAVAKVSGVKVRNITGPAKVFDSEEDAIEAVLSDEIVDGDVVVVRFVGPKGGPGMPEMLSLSSMIVGKGQGDKVALLTDGRFSGGTYGLVVGHIAPEAQVGGPIAYLRTGDMVTVDQDTKEITMHVPDEELAKRKAETELPPLYSRGVLGKYAHIVSSASRGAVTDFWNMDKSGKALEHHHHHH”, the “soluble on expression in E. coli” value was “soluble”. With “MFENCFPNTLDTTVRYKMKAGRPDTFVITGDIDAMWLRDSSAQVWPYLPLMKDDKELQLLIAGLINRQAECIRIDPYANAFNDGPLGSYWETDHTQHMVKELHERKWEIDSLCYPIRLAYHYWLLTKDISAFDADWHETMKLVVQTFKEQQRKQGLGPYSFTRDCDRPTDSQINNGWGAPVKPVGLIVSSFRPSDDATQYGFLIPSNMFAVVSLRQLAEIEREVYDNLPFAEECTALADEVDAAIRRYGTFNHPVCGRIYAFEVDGFGNALCMDDANVPCLLAAPYLGYCSFKDAVYRNTRKMIWSENNPYFFKGKAGEGVGGPHVGLNYIWPMSIIMKAFTTDVPEEIRSCLKQLRDTDGGTGFMHESFNSENAADFTRSWFAWTNTLFGELILKIIREYPGLLSQALLEHHHHHH” the “soluble on expression in E. coli” value was “not soluble”. With “MGGVTSSIAAKFAFFPPSPPSYGFVSDVDRLYITEVPRRDDVDVLKLKTRRGNEIVAIYIKHPKANGTLLYSHGNAADLGQMFELFIELSNRLRLNLMGYDYSGYGQSTGKASECNTYADIDAAYTCLKEHYGVKDDQLILYGQSVGSGPTIDLASRTPNLRGVVLHSPILSGMRVLYPVKRTYWFDIYKNIDKIGAVTCPVLVIHGTADEVVDCSHGKQLWELSKEKYEPLWVSGGGHCNLELYPEFIKHLKKYVISISKGPRTGSNKTATTDAAKKQSKPAENGRADTFQLGCCLPEVSRNSVDSQLEKSKKTSKPEKSRMSIDRFRRKKGSVW” the “soluble on expression in E. coli” value was “soluble”. For “MGHHHHHHSHMLGLRKAAAISLLLRNVGLQLATLLMSQKKLGFCGNFLFLNLAIIQTKISSSFFFFLRQSLTLSPRLECNGAISAHCHLRLPDSSNSPASASQVTGITGSHHHAWLIFVFLVETGFCHVGQDGLELLTSGDPPASASQSAGITGMSHHTWPTDLFFKTVLPARLGLWDSSV”, the “soluble on expression in E. coli” value was “not soluble”. In the case of “MGSSHHHHHHSSGLVPRGSHMATPPKRSCPSFSASSEGTRIKKISIEGNIAAGKSTFVNILKQLCEDWEVVPEPVARWCNVQSTQDEFEELTMSQKNGGNVLQMMYEKPERWSFTFQTYACLSRIRAQLASLNGKLKDAEKPVLFFERSVYSDRYIFASNLYESECMNETEWTIYQDWHDWMNNQFGQSLELDGIIYLQATPETCLHRIYLRGRNEEQGIPLEYLEKLHYKHESWLLHRTLKTNFDYLQEVPILTLDVNEDFKDKYESLVEKVKEFLSTL”, the “soluble on expression in E. coli” value is reported as “soluble”. In the case of “MGSSHHHHHHSSGLVPRGSHMPSHRNSNLKFCTVCASNNNRSMESHKVLQEAGYNVSSYGTGSAVRLPGLSIDKPNVYSFGTPYNDIYNDLLSQSADRYKSNGLLQMLDRNRRLKKAPEKWQESTKVFDFVFTCEERCFDAVCEDLMNRGGKLNKIVHVINVDIKDDDENAKIGSKAILELADMLNDKIEQCEKDDIPFEDCIMDILTEWQSSHSQLPSLYAPSYY”, the “soluble on expression in E. coli” value is reported as “soluble”. With “MKKIKTAFALPLFWLLFKVSKDMHKIQVDGQAWCQWQHKNFTLWNMCSLFIGFKEFRNLFYYRIGYLHHLIEWIFPRMTNLYITTPRSDVDSGLIIQHGFATIISAKQIGKNCKIYQQVTIGYDHTLQAPIIGDNVEICCGAKVIGGVTIGNNVIIGANAVVIKDVPNNCIVAGVPAKIIKKILEHHHHHH” the “soluble on expression in E. coli” value was “not soluble”. For “MKKKINCFIPFGNPKDTIQTVKELQASELVNKIYLLSADTNKECLPGCECLLINGLYSTSTIKTIADNADDASYLLLYTKQTPLKLGLYALERMTQIIQSSSENAMVYADHYQLVDGVLKQAPVIDYQQGSLRDDFDFGSVLLFNSEIFTLASSILEETVFQYAAFYEMRLMLGNLFQIIHINEFLYTEIETDTRKSGEKQFDYVNPKNREVQIEMEKVCIKHLKEINAYVRPSSRTVNLDREAFEFEASVIIPVRNRIRTIRDAVNSALSQQTTFPFNVIVIDNHSTDGTTEALQEFSADNRLIHIIPQENDLGIGGCWNVGVHHEKCGKFAVQLDSDDLYKDEHTLQKIVDTFYQQNCAMVIGTYLMTDFQMNEIAPGVIDHKEWTVEDGPNNALRINGLGAPRAFYTPILRKIKFPNTSYGEDYAIGLSISREYTIGRIYDVIYLCRRWEGNSDAALDIEKINRNNFYKDSIRTWELQARIRMHSIDESFQRLVNEMIEKQKKDWKLAKKNYKELEQNLKKEKTLELKLGGDTKRVRFFPNPQRAISTMAQTDSQSIQERPCFLCNDNRPAEQTSLSLGHYEVCLNPYPIFRRHLTIIEEEHTPQTIKNRFEDMLFLAENMNEFLILYNGPECGASAPDHMHFQAAGKEEKIANPFGMTFISDMLSSEDSVHSHLENGFTTSIGISSPNRRGIIEMFEYLYDKIVSIYHDKEPLINVIAWYGLETVNRTGGDEIKQWNCIIFLRSKHRPECYYAQGKKGLLISPAIAEMCGVFPIVREEDLDKITAKKITQIYKEVSLSQEQLKALTDQTS”, the “soluble on expression in E. coli” value was “not soluble”.
